Assay results from the supplement of paper PMC10470496.
Structures can show the parent of a compound that is named as a salt. This is one part of the list. Many values rest on one well or one pass, so single values are uncertain.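 The three strains are clinical Candida auris isolates from the CDC resistance isolate bank, from clades III, IV and I, grown in RPMI-1640 at 35°C. Growth is background-corrected OD600 relative to vehicle-only wells on the same plate; a hit meant over 50% inhibition in at least two strains plus a plate-corrected B-score above 0.1.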

Tests used:
Assay in all cases: growth relative to vehicle control (OD600 ratio) (fraction); higher = less inhibition
Conditions in all cases: 24 h
C. auris AR-384 = test system: C. auris AR-384
C. auris AR-386 = test system: C. auris AR-386
C. auris AR-387 = test system: C. auris AR-387

SMILES | growth (C. auris AR-384; 1 µM) | growth (C. auris AR-384; 10 µM) | growth (C. auris AR-386; 1 µM) | growth (C. auris AR-386; 10 µM) | growth (C. auris AR-387; 1 µM) | growth (C. auris AR-387; 10 µM)
CN(C)CCC=C1c2ccccc2C=Cc2ccccc21 [Cyclobenzaprine HCl] | 0.86 | 0.69 | 0.7 | 0.71 | 0.74 | 0.91
CO/N=C(\C(=O)N[C@@H]1C(=O)N2C(C(=O)O)=C(CSC(=O)c3ccco3)CS[C@H]12)c1csc(N)n1 [Ceftiofur HCl] | 0.77 | 0.78 | 1.05 | 0.72 | 0.74 | 0.97
Oc1c(I)cc(Cl)c2cccnc12 [Clioquinol] | 0.12 | 0.11 | 0.08 | 0.08 | 0.02 | 0.05
CC(C)NCC(O)c1cc(O)cc(O)c1 (centres undefined) [Metaproterenol Sulfate] | 1.07 | 1 | 0.89 | 1.01 | 0.84 | 0.76
OC[C@@H](O)[C@H](O)[C@@H](O)CO [Xylitol] | 1.07 | 1.1 | 0.64 | 1.02 | 0.89 | 1.11
CN(CCOc1ccc(CC2SC(=O)NC2=O)cc1)c1ccccn1 (centres undefined) [Rosiglitazone] | 0.78 | 1.22 | 0.99 | 1.16 | 1.17 | 1.13
CN[C@@H]1[C@H](O)[C@H](NC)[C@H]2O[C@@]3(O)C(=O)C[C@@H](C)O[C@H]3O[C@@H]2[C@H]1O [Spectinomycin 2HCl] | 0.76 | 0.59 | 0.59 | 0.68 | 0.67 | 0.54
Brc1c(NC2=NCCN2)ccc2nccnc12 [Brimonidine Tartrate] | 0.83 | 0.76 | 0.67 | 0.77 | 0.57 | 0.76
Cc1cn(-c2cc(NC(=O)c3ccc(C)c(Nc4nccc(-c5cnccn5)n4)c3)cc(C(F)(F)F)c2)cn1 [Radotinib] | 0.89 | 1.01 | 0.89 | 0.76 | 0.8 | 0.71
CC(=O)O[C@H]1C(=O)[C@@]2(C)[C@H]([C@H](OC(=O)c3ccccc3)[C@]3(O)C[C@H](OC(=O)[C@H](O)[C@@H](NC(=O)c4ccccc4)c4ccccc4)C(C)=C1C3(C)C)[C@]1(OC(C)=O)CO[C@@H]1C[C@@H]2O [Paclitaxel] | 0.85 | 1.22 | 1.03 | 0.75 | 0.72 | 0.57
CC(c1cc2ccccc2s1)N(O)C(N)=O (centres undefined) [Zileuton] | 0.72 | 0.64 | 0.68 | 0.72 | 0.88 | 0.88
C[N+](C)(C)CCOP(=O)(O)OP(=O)([O-])OC[C@H]1O[C@@H](n2ccc(N)nc2=O)[C@H](O)[C@@H]1O [Citicoline sodium] | 0.96 | 0.85 | 0.62 | 0.67 | 0.94 | 1.27
CN1CCN(c2c(F)cc3c(=O)c(C(=O)O)cn4c3c2OCN4C)CC1 [Marbofloxacin] | 0.71 | 0.8 | 0.94 | 0.77 | 0.82 | 0.66
Oc1cc(O)c(Cl)cn1 [Gimeracil] | 1.19 | 0.93 | 1.04 | 0.87 | 0.87 | 0.91
CC(=O)Oc1ccccc1C(=O)Nc1ncc([N+](=O)[O-])s1 [Nitazoxanide] | 1.04 | 0.81 | 0.9 | 0.8 | 1.15 | 0.78
CO[C@@]12[C@H](COC(N)=O)C3=C(C(=O)C(C)=C(N)C3=O)N1C[C@@H]1N[C@@H]12 [Mitomycin C] | 1.04 | 0.8 | 0.91 | 0.91 | 0.93 | 0.79
CC/C(=C(/CC)c1ccc(O)cc1)c1ccc(O)cc1 [Diethylstilbestrol] | 0.84 | 0.82 | 0.98 | 0.95 | 0.97 | 0.87
CC(CN1c2ccccc2Sc2ccccc21)N(C)C (centres undefined) [Promethazine HCl] | 1.06 | 0.91 | 0.68 | 0.86 | 0.92 | 0.92
COc1ccc(C[C@@H]2c3cc(OC)c(OC)cc3CC[N@+]2(C)CCC(=O)OCCCCCOC(=O)CC[N@@+]2(C)CCc3cc(OC)c(OC)cc3[C@H]2Cc2ccc(OC)c(OC)c2)cc1OC [Cisatracurium Besylate] | 0.78 | 0.87 | 0.65 | 0.84 | 0.82 | 0.75
Cc1ccc(-c2cc(C(F)(F)F)nn2-c2ccc(S(N)(=O)=O)cc2)cc1 [Celecoxib] | 0.95 | 0.53 | 0.66 | 0.81 | 0.93 | 0.73
NC(CO)C(=O)NNCc1ccc(O)c(O)c1O (centres undefined) [Benserazide HCl] | 1.09 | 0.83 | 1.15 | 0.95 | 0.67 | 0.82
CCC1(c2c[nH]cn2)Cc2ccccc2C1 [Atipamezole] | 1.12 | 1.17 | 1.03 | 0.69 | 0.88 | 0.97
C[C@@H](O)[C@H]1C(=O)N2C(C(=O)OCOC(=O)C(C)(C)C)=C(SC3CN(C4=NCCS4)C3)[C@H](C)[C@H]12 [Tebipenem Pivoxil] | 0.88 | 0.64 | 0.66 | 0.83 | 0.69 | 0.71
CNS(=O)(=O)Cc1ccc2[nH]cc(CCN(C)C)c2c1 [Sumatriptan Succinate] | 0.97 | 0.49 | 0.53 | 1.07 | 0.86 | 0.92
CN(C)CC/C=C1/c2ccccc2COc2ccc(CC(=O)O)cc21 [Olopatadine HCl] | 0.83 | 1.16 | 0.68 | 1.01 | 1.11 | 1.21
CCN(Cc1ccncc1)C(=O)C(CO)c1ccccc1 (centres undefined) [Tropicamide] | 0.91 | 1.18 | 1.19 | 1.08 | 1.03 | 1.05
N#C[C@@H]1C[C@@H]2C[C@@H]2N1C(=O)[C@@H](N)C12CC3CC(CC(O)(C3)C1)C2 [Saxagliptin hydrate] | 1.23 | 1.09 | 0.96 | 1.21 | 0.79 | 0.86
Clc1ccc(C(Cn2ccnc2)OCc2ccsc2Cl)c(Cl)c1 (centres undefined) [Tioconazole] | 0.41 | 0.19 | 0.75 | 0.47 | 0.07 | 0.04
Cc1c(OCC(F)(F)F)ccnc1C[S+]([O-])c1nc2ccccc2[nH]1 (centres undefined) [Lansoprazole] | 1.2 | 1.35 | 1.24 | 1.05 | 0.85 | 0.75

Gathered by group, those above with a carbonyl joined to an NH by a bond outside any ring
SMILES | growth (C. auris AR-384; 1 µM) | growth (C. auris AR-384; 10 µM) | growth (C. auris AR-386; 1 µM) | growth (C. auris AR-386; 10 µM) | growth (C. auris AR-387; 1 µM) | growth (C. auris AR-387; 10 µM)
CO/N=C(\C(=O)N[C@@H]1C(=O)N2C(C(=O)O)=C(CSC(=O)c3ccco3)CS[C@H]12)c1csc(N)n1 [Ceftiofur HCl] | 0.77 | 0.78 | 1.05 | 0.72 | 0.74 | 0.97
Cc1cn(-c2cc(NC(=O)c3ccc(C)c(Nc4nccc(-c5cnccn5)n4)c3)cc(C(F)(F)F)c2)cn1 [Radotinib] | 0.89 | 1.01 | 0.89 | 0.76 | 0.8 | 0.71
CC(=O)O[C@H]1C(=O)[C@@]2(C)[C@H]([C@H](OC(=O)c3ccccc3)[C@]3(O)C[C@H](OC(=O)[C@H](O)[C@@H](NC(=O)c4ccccc4)c4ccccc4)C(C)=C1C3(C)C)[C@]1(OC(C)=O)CO[C@@H]1C[C@@H]2O [Paclitaxel] | 0.85 | 1.22 | 1.03 | 0.75 | 0.72 | 0.57
CC(c1cc2ccccc2s1)N(O)C(N)=O (centres undefined) [Zileuton] | 0.72 | 0.64 | 0.68 | 0.72 | 0.88 | 0.88
CC(=O)Oc1ccccc1C(=O)Nc1ncc([N+](=O)[O-])s1 [Nitazoxanide] | 1.04 | 0.81 | 0.9 | 0.8 | 1.15 | 0.78
CO[C@@]12[C@H](COC(N)=O)C3=C(C(=O)C(C)=C(N)C3=O)N1C[C@@H]1N[C@@H]12 [Mitomycin C] | 1.04 | 0.8 | 0.91 | 0.91 | 0.93 | 0.79
NC(CO)C(=O)NNCc1ccc(O)c(O)c1O (centres undefined) [Benserazide HCl] | 1.09 | 0.83 | 1.15 | 0.95 | 0.67 | 0.82
